Measured values published in PubChem BioAssay (NCATS).
The inconclusive results got no clear call from the source; some entries with a clear call stand among them for comparison. Potencies beside an inconclusive call are fits to weak or partial responses and may not hold up. Activity calls are given as the source filed them. The call rests on the fitted dose curve; in most records, active means well fitted curve in the direction sought with a large enough effect; inconclusive means small, poorly fitted or top-dose-only effect, or another doubt; inactive means no such curve, though single readings can be large; an effect the other way counts as inactive or inconclusive.

Key:
[1] = Quantitative High-Throughput drug screen in 47 multiple myeloma cell lines against the NCATS MIPE library collection: KMS20_JCRB cell viability assay (AID 1918973); conditions: CellTiter-Glo ATP, 48 h; viability (% of DMSO): at 45.8 µM (top of the series); further: nearly all actives have a fitted effect of over 45% in size
Procedure, shortened: (§1)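 Viability readout: CellTiter-Glo luminescence following 5 min room-temperature incubation with reagent. Prior exposure: 48 h, 37C, humidified 5% CO2, 500 cells per well.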

[2] = Quantitative High-Throughput drug screen in 47 multiple myeloma cell lines against the NCATS MIPE library collection: KMS21BM_JCRB cell viability assay (AID 1918974); conditions: ATP luminescence, 48 h; viability: at 45.8 µM (top of the series) unless noted
Procedure, shortened: as §1

[3] = Quantitative High-Throughput drug screen in 47 multiple myeloma cell lines against the NCATS MIPE library collection: KMS26_JCRB cell viability assay (AID 1918975); conditions: KMS26 myeloma cells viability, CellTiter-Glo ATP, 48 h; viability (% of DMSO): at 45.8 µM (top of the series); further: nearly all actives have a fitted effect of over 45% in size
Procedure, shortened: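 Steps: seed 500 cells per well; pin-transfer MIPE 4.0 library; incubate 48 h at 37C, 5% CO2, humidified; add CellTiter-Glo, 5 min room temperature; read luminescence.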

[4] = Quantitative High-Throughput drug screen in 47 multiple myeloma cell lines against the NCATS MIPE library collection: MOLP8_DSMZ cell viability assay (AID 1918977); conditions: MOLP8 myeloma viability, CellTiter-Glo ATP luminescence, 48 h; viability (% of control): at 45.8 µM (top of the series); further: nearly all actives have a fitted effect of over 45% in size
Procedure, shortened: (§2)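 Myeloma cells (500/well) treated with MIPE 4.0 compounds for 48 h at 37 °C, 5% CO2. Viability read as ATP via CellTiter-Glo luminescence after 5 min at RT; DMSO-only wells = 100%, media-only = 0% viability.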

[5] = Quantitative High-Throughput drug screen in 47 multiple myeloma cell lines against the NCATS MIPE library collection: NCIH929_DSMZ cell viability assay (AID 1918978); further: nearly all actives have a fitted effect of over 35% in size
Procedure, shortened: as §2

[6] = Quantitative High-Throughput drug screen in 47 multiple myeloma cell lines against the NCATS MIPE library collection: MM1R_ATCC cell viability assay (AID 1918981); further: nearly all actives have a fitted effect of over 35% in size
Procedure, shortened: as §2

[7] = Quantitative High-Throughput drug screen in 47 multiple myeloma cell lines against the NCATS MIPE library collection: LP1_DSMZ cell viability assay (AID 1918982); conditions: LP1 myeloma viability, CellTiter-Glo ATP luminescence, 48 h; viability (% of control): at 45.8 µM (top of the series); further: nearly all actives have a fitted effect of over 35% in size
Procedure, shortened: as §2

[8] = Quantitative High-Throughput drug screen in 47 multiple myeloma cell lines against the NCATS MIPE library collection: L363_DSMZ cell viability assay (AID 1918984); conditions: L363 myeloma viability, CellTiter-Glo ATP luminescence, 48 h; viability (% of control): at 45.8 µM (top of the series); further: nearly all actives have a fitted effect of over 40% in size
Procedure, shortened: as §2

[9] = Quantitative High-Throughput drug screen in 47 multiple myeloma cell lines against the NCATS MIPE library collection: KMS34_JCRB cell viability assay (AID 1918985); conditions: KMS34 myeloma viability, CellTiter-Glo ATP luminescence, 48 h; viability, percent of control: at 45.8 µM (top of the series); further: nearly all actives have a fitted effect of over 40% in size
Procedure, shortened: as §2

[10] = Quantitative High-Throughput drug screen in 47 multiple myeloma cell lines against the NCATS MIPE library collection: OCIMY7_PLB cell viability assay (AID 1918987); conditions: OCI-MY7 myeloma viability, CellTiter-Glo ATP, 48 h; viability (% of DMSO): at 45.8 µM (top of the series); further: nearly all actives have a fitted effect of over 65% in size
Procedure, shortened: as §2

[11] = Quantitative High-Throughput drug screen in 47 multiple myeloma cell lines against the NCATS MIPE library collection: OCIMY5_PLB cell viability assay (AID 1918988); conditions: OCI-MY5 myeloma viability, ATP luminescence, 48 h; viability, % of control: at 45.8 µM (top of the series); further: nearly all actives have a fitted effect of over 65% in size
Procedure, shortened: as §2

[12] = Quantitative High-Throughput drug screen in 47 multiple myeloma cell lines against the NCATS MIPE library collection: OPM1_PLB cell viability assay (AID 1918989); further: nearly all actives have a fitted effect of over 40% in size
Procedure, shortened: as §2

[13] = Quantitative High-Throughput drug screen in 47 multiple myeloma cell lines against the NCATS MIPE library collection: SKMM1_PLB cell viability assay (AID 1919863); conditions: SKMM1 myeloma viability, CellTiter-Glo ATP, 48 h; viability: hits give low values; further: nearly all actives have a fitted effect of over 35% in size
Procedure, shortened: as §2

[14] = Quantitative High-Throughput drug screen in 47 multiple myeloma cell lines against the NCATS MIPE library collection: U266_ATCC cell viability assay (AID 1919864); conditions: U266 myeloma viability, CellTiter-Glo ATP luminescence, 48 h; viability (% of DMSO control): at 45.8 µM (top of the series); further: nearly all actives have a fitted effect of over 35% in size
Procedure, shortened: as §2

[15] = Quantitative High-Throughput drug screen in 47 multiple myeloma cell lines against the NCATS MIPE library collection: XG1_PLB cell viability assay (AID 1919866); conditions: CellTiter-Glo ATP, 48 h; viability: at 45.8 µM (top of the series); further: nearly all actives have a fitted effect of over 35% in size
Procedure, shortened: as §2

[16] = Quantitative High-Throughput drug screen in 47 multiple myeloma cell lines against the NCATS MIPE library collection: MM1S_ATCC cell viability assay (AID 1918980); further: nearly all actives have a fitted effect of over 45% in size
Procedure, shortened: as §2

[17] = Quantitative High-Throughput drug screen in 47 multiple myeloma cell lines against the NCATS MIPE library collection: XG6_PLB cell viability assay (AID 1919865); conditions: XG6 myeloma viability, CellTiter-Glo ATP luminescence, 48 h; viability (% of control): at 45.8 µM (top of the series); further: nearly all actives have a fitted effect of over 40% in size
Procedure, shortened: as §2

[18] = Quantitative High-Throughput drug screen in 47 multiple myeloma cell lines against the NCATS MIPE library collection: OCIMY1_PLB cell viability assay (AID 1918979); conditions: OCI-MY1 myeloma viability, CellTiter-Glo ATP, 48 h; viability: at 45.8 µM (top of the series) unless noted; further: nearly all actives have a fitted effect of over 35% in size
Procedure, shortened: as §2

[19] = Quantitative High-Throughput drug screen in 47 multiple myeloma cell lines against the NCATS MIPE library collection: KMS28PE_JCRB cell viability assay (AID 1918983); further: nearly all actives have a fitted effect of over 35% in size
Procedure, shortened: as §2
Potency means the concentration at half of the fitted maximal effect.

| SMILES | Potency [1] | Potency [2] | Potency [3] | Potency [4] | Potency [5] | Potency [6] | Potency [7] | Potency [8] | Potency [9] | Potency [10] | Potency [11] | Potency [12] | Potency [13] | Potency [14] | Potency [15] | Potency [16] | Potency [17] | Potency [18] | viability [13] | Potency [19] |
| --- | --- | --- | --- | --- | --- | --- | --- | --- | --- | --- | --- | --- | --- | --- | --- | --- | --- | --- | --- | --- |
| Cc1ccccc1C(=O)c1ccc(Nc2ccc(Br)cc2N)cc1Cl | active: 14.8 µM | inconclusive: 37.2 µM [rising, partial curve, poor fit] | active: 5.26 µM | inconclusive: 8.33 µM [cytotoxic, partial curve] | active: 23.5 µM | inconclusive: 14.8 µM [cytotoxic, partial curve] | inconclusive: 14.8 µM [cytotoxic, partial curve] | inconclusive: 9.35 µM [cytotoxic, single point] | inconclusive: 2.96 µM [cytotoxic, full curve] | active: 11.8 µM | active: 10.5 µM | active: 16.6 µM | active: 16.6 µM | active: 11.8 µM | inconclusive: 23.5 µM [cytotoxic, partial curve, poor fit] | – | – | – | – | – |
| CC[C@]1(O)C[C@H]2CN(CCC3=c4ccccc4=N[C]3[C@@](C(=O)OC)(c3cc4c(cc3OC)N(C)[C@H]3[C@@](O)(C(N)=O)[C@H](O)[C@]5(CC)C=CCN6CC[C@]43[C@@H]65)C2)C1 | inconclusive: 1.32 µM [cytotoxic, full curve] | active: 0.0935 µM | active: 0.0662 µM | active: 0.148 µM | – | – | – | active: 0.132 µM | active: 0.0053 µM | active: 0.0662 µM | inconclusive: 0.935 µM [cytotoxic, full curve] | inconclusive: 0.0264 µM [cytotoxic, full curve] | active: 0.0148 µM | – | inconclusive: 0.0017 µM [cytotoxic, full curve] | active: 0.235 µM | inactive | – | – | – |
| O=C(O)C(=O)Nc1cccc(C2=NN=N[N]2)c1 | inconclusive: 2.64 µM [rising, full curve, poor fit] | inconclusive: 0.187 µM [rising, full curve, poor fit] | inconclusive: 5.9 µM [rising, partial curve, poor fit] | inactive | – | inconclusive: 0.0012 µM [rising, full curve, poor fit] | inactive | inconclusive: 0.001 µM | inactive | inconclusive: 37.2 µM [cytotoxic, single point] | inactive | – | – | inconclusive: 0.0019 µM [rising, full curve, poor fit] | – | inconclusive: 0.0019 µM [rising, full curve, poor fit] | inactive | inconclusive: 0.001 µM | inactive: 129% | – |
| COc1cc2nc(N3CCN(C(=O)C4COc5ccccc5O4)CC3)nc(N)c2cc1OC (stereo not given) | inconclusive: 66.2 µM [cytotoxic, partial curve, poor fit] | inconclusive: 33.2 µM [rising, partial curve, poor fit] | inconclusive: 26.4 µM [cytotoxic, partial curve, poor fit] | inactive | active: 23.5 µM | – | active: 11.8 µM | inactive | inactive | – | inconclusive: 14.8 µM [cytotoxic, partial curve, poor fit] | – | – | inconclusive: 33.2 µM [cytotoxic, single point] | – | inconclusive: 10.5 µM [cytotoxic, full curve, poor fit] | active: 20.9 µM | inconclusive: 13.2 µM [cytotoxic, partial curve, poor fit] | inactive: 137% | – |
| OC[C@H]1OC(O)C[C@@H](O)[C@H]1O (stereo not given in full) | inconclusive: 0.0023 µM [cytotoxic, full curve, poor fit] | inconclusive: 0.0037 µM [rising, full curve, poor fit] | inactive | inactive | inconclusive: 0.0209 µM [rising, full curve, poor fit] | – | – | inactive | inactive | inconclusive: 0.0017 µM [rising, full curve, poor fit] | inconclusive: 0.0037 µM [rising, full curve, poor fit] | inconclusive: 0.0296 µM [rising, full curve, poor fit] | – | inconclusive: 0.001 µM | – | inactive | inconclusive: 0.0017 µM [rising, full curve, poor fit] | – | inactive: 120% | inactive |
| CCCS(=O)(=O)Nc1ccc(F)c(C(=O)c2c[nH]c3ncc(-c4ccc(Cl)cc4)cc23)c1F | inconclusive: 23.5 µM [cytotoxic, partial curve, poor fit] | inconclusive: 0.935 µM [rising, full curve, poor fit] | inconclusive: 10.5 µM [cytotoxic, partial curve, poor fit] | inconclusive: 37.2 µM [cytotoxic, single point] | inconclusive: 1.32 µM [cytotoxic, full curve, poor fit] | inconclusive: 37.2 µM [cytotoxic, single point] | active: 16.6 µM | inactive | inconclusive: 37.2 µM [cytotoxic, partial curve, poor fit] | – | active: 13.2 µM | inconclusive: 26.4 µM [cytotoxic, partial curve, poor fit] | inconclusive: 37.2 µM [cytotoxic, single point] | – | active: 7.43 µM | – | – | – | – | inconclusive: 14.8 µM [cytotoxic, partial curve, poor fit] |
| COC1=C2C[C@@H](C)C[C@H](OC)[C@@H](O)[C@@H](C)C=C(C)[C@H](OC(N)=O)[C@@H](OC)C=CC=C(C)C(=O)NC(=CC1=O)C2=O | active: 0.0418 µM | inconclusive: 37.2 µM [rising, partial curve, poor fit] | active: 0.0526 µM | active: 0.0418 µM | active: 0.118 µM | – | – | active: 7.43 µM | active: 0.166 µM | – | – | active: 0.418 µM | – | – | – | – | active: 0.332 µM | – | – | – |
| COC(=O)N[C@H](C(=O)N[C@@H](Cc1ccccc1)[C@@H](O)CN(Cc1ccc(-c2ccccn2)cc1)NC(=O)[C@@H](NC(=O)OC)C(C)(C)C)C(C)(C)C | inconclusive: 0.0132 µM [rising, full curve, poor fit] | inconclusive: 37.2 µM [rising, partial curve] | inconclusive: 11.8 µM [cytotoxic, partial curve, poor fit] | inconclusive: 0.332 µM [cytotoxic, partial curve, poor fit] | – | inconclusive: 33.2 µM [cytotoxic, partial curve, poor fit] | inconclusive: 93.5 µM [cytotoxic, partial curve, poor fit] | inactive | – | inconclusive: 23.5 µM [cytotoxic, partial curve, poor fit] | inconclusive: 20.9 µM [cytotoxic, partial curve, poor fit] | – | inconclusive: 37.2 µM [cytotoxic, single point] | inactive | inconclusive: 1.48 µM [cytotoxic, full curve, poor fit] | inactive | inactive | – | – | inconclusive: 23.5 µM [cytotoxic, partial curve, poor fit] |
| CCOC(=O)N1c2ccc(C(F)(F)F)cc2[C@@H](N(Cc2cc(C(F)(F)F)cc(C(F)(F)F)c2)C(=O)OC)C[C@H]1CC | inactive | inconclusive: 20.9 µM [rising, partial curve] | active: 3.32 µM | inconclusive: 10.5 µM [cytotoxic, partial curve, poor fit] | active: 8.33 µM | – | inconclusive: 10.5 µM [cytotoxic, partial curve] | inactive | – | inactive | – | active: 3.32 µM | inconclusive: 4.18 µM [cytotoxic, full curve, poor fit] | inconclusive: 18.7 µM [cytotoxic, partial curve, poor fit] | inconclusive: 20.9 µM [cytotoxic, partial curve] | inconclusive: 26.4 µM [cytotoxic, single point] | inconclusive: 2.64 µM [cytotoxic, full curve, poor fit] | active: 16.6 µM | – | – |

Taken from above.
In Potency [15], `COC(=O)N[C@H](C(=O)N[C@@H](Cc1ccccc1)[C@@H](O)CN(Cc1ccc(-c2ccccn2)cc1)NC(=O)[C@@H](NC(=O)OC)C(C)(C)C)C(C)(C)C` shows inconclusive: 1.48 µM [cytotoxic, full curve, poor fit]
In Potency [17], `COc1cc2nc(N3CCN(C(=O)C4COc5ccccc5O4)CC3)nc(N)c2cc1OC` (stereo not given) shows active: 20.9 µM
